Test results: patent US20130108641A1
These are yes or no findings as the source states them, for the method shown. Some entries that bind do so weakly or less than the wild type.

Protein sequences, listed by entry. Tags and fused reporters are not part of them. Lines headed by an entry give the natural chain unless they say otherwise; changes in a name come on top. Residues count along the entry.
UniProt Q9Y5U5: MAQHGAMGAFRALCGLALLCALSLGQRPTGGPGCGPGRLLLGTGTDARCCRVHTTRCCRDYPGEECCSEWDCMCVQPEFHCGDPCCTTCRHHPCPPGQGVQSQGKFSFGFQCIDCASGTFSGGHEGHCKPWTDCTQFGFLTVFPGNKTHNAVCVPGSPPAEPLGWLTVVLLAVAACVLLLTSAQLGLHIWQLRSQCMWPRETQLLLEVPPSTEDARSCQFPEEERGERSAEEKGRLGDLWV
human GITR expressed on cells: residues 26-241 of Q9Y5U5
human GITR protein (form not stated): residues 26-161 of Q9Y5U5

B1: anti-GITR antibody clone 1718 (antibody, V domains shown)
VH: QVQVQQSGPELVKPGASVRISCKASDYTFTNYYIHWVRQRPGQGLEWLGWIYPGKGYTNYNEKFKGKATLTADKSSSTAYMQFSSLTSEDSAVYFCASGYGNYYFPYWGQGTLVTVSA
VL: IQMTQSSSYLSVSLGGRVTITCKASDHIKNWLAWYQQKPGNVPRLLMSAATSLETGFPSRFSGSGSGKDFTLTITSLQTEDVATYYCQQYWSTPWTFGGGTKLEIK
B2: humanized anti-GITR antibody 2155 variant HC4-LC3 (antibody, V domains shown)
VH: EVQLVESGGGLIQPGGSLKLSCAASGFTISSYAMSWVRQAPGKGLEWVAIISTGGSTYYADSVKGRFTISRDNSKNTLYLQMNSLRAEDTAVYYCARVGGYYDSMDHWGQGTSVT
VL: DIVLTQSPASLAVSPGQRATITCRASETVDNYGISFMNWFQQKPGQPPKLLIYAASNQGSGVPARFSGSGSGTDFTLTINPVEADDTANYYCQQSKEVPWTFGQGTKVE
B3: humanized anti-GITR antibody 2155 variant HC3a-LC2a (antibody, V domains shown)
VH: QVTLVESGGGLVKPGGSLTLSCGASGFTISSYAMSWVRQSPGKALEWVAIISTGGSTYYPDKFRGRFTISRDNAKNSLYLTMSSLRSEDTATYYCARVGGYYDSMDHWGQGTSVT
VL: DIVLTQSPASLSASVGDRATISCRASETVDNYGISFMNWFQQKPGQSPKLLIYAASNQGSGVPARFSGSGSGTDFSLTISPMQPDDTATYYCQQSKEVPWTFGGGTKLE
B4: humanized anti-GITR antibody 2155 variant HC3b-LC2a (antibody, V domains shown)
VH: QVTLKESGGGLVKPGGSLTLSCGASGFTISSYAMSWVRQSPGKALEWVAIISTGGSTYYPDKFRGRFTISRDNAKNSLYLTMSSLRSEDTATYYCARVGGYYDSMDHWGQGTSVT
VL: DIVLTQSPASLSASVGDRATISCRASETVDNYGISFMNWFQQKPGQSPKLLIYAASNQGSGVPARFSGSGSGTDFSLTISPMQPDDTATYYCQQSKEVPWTFGGGTKLE

How the values were obtained:
[1] = biological target: human GITR expressed on cells (human) (UniProt Q9Y5U5); test: Meso Scale assay on HEK293-Trex-hGITR cells
[2] = biological target: human GITR protein (form not stated) (human) (UniProt Q9Y5U5); test: ELISA, GITR protein coated

| Binder | binding [1] | binding [2] |
| --- | --- | --- |
| B1 | binds |  |
| B2 |  | binds |
| B3 |  | binds |
| B4 |  | binds |
